# Laboratory results taken from PubChem BioAssay AID2685 (National Center for Advancing Translational Sciences (NCATS), 2010).
# This is one part of the list. Shown are side measurements of this screen, not its main read-out; they come without a call. The list favours compounds with an active or inconclusive main result. The note in brackets gives the kind of curve behind each potency; many fits are weak.
# Experiment: qHTS Assay for Lipid Storage Modulators in Drosophila S3 Cells;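 as to cell number change: cells counted by Cell Tracker Red CMTPX staining in the red channel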
# Conditions: BODIPY lipid droplet fluorescence, 18-24 h; for cell number change: measured here: cell count max response, cells fed with added oleic acid
# Procedure, shortened: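 Drosophila S3 cells loaded with oleic acid (400 uM, as added) and compounds at several concentrations; lipid droplets imaged by 488-nm laser-scanning cytometry, 500–530 nm intensity and object ratio to cell channel. Percent activity normalized to 20 uM Triacsin C.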
# [1] = measured here: lipid fluorescence (Fed channel) AC50, cells fed with added oleic acid
# [2] = measured here: cell number channel AC50, cells fed with added oleic acid
SMILES,AC50 [1],cell number change,AC50 [2]
COc1ccc(N/C(=N/c2nc(C)cc(C)n2)NC(=O)Nc2ccc(Cl)c(Cl)c2)c(OC)c1,"0.058 µM [rising, full curve, poor fit]",–,–
COc1cccc(CN(C(=O)c2cnccn2)C(C(=O)NC2CCCCC2)c2cc(OC)c(OC)c(OC)c2)c1 (configuration not stated),"6.51 µM [falling, single point]",8.26%,–
COc1cc(-c2noc(C)c2C#Cc2ccc(N)cc2)cc(OC)c1OC,–,-23.3%,–
Cc1ccccc1Nc1c(-c2ccccc2)nc2ncccn12,"6.51 µM [rising, partial curve, poor fit]",23.9%,–
O=C(/C=C/c1ccc(N2CCCCC2)c([N+](=O)[O-])c1)c1ccc(S(=O)(=O)N2CCCC2)cc1,"6.51 µM [falling, single point]",–,"6.51 µM [falling, partial curve, poor fit]"
CC(O)c1cccc(NC2=CC(=O)CC(C)(C)C2)c1 (configuration not stated),"8.2 µM [rising, partial curve]",2.99%,–
CCOCCCn1c(=NC(=O)c2cccnc2)c(C(=O)OCC)cc2c(=O)n3ccccc3nc21,"0.366 µM [rising, full curve]",18%,"0.259 µM [rising, full curve]"
CC(=O)Oc1ccc(OC(C)=O)c(S(=O)(=O)c2ccc(C)c(C)c2)c1,–,41.4%,"7.31 µM [rising, partial curve]"
Cc1ccc(C(=O)N2CCN(c3ccccc3Cl)CC2)cc1[N+](=O)[O-],–,–,"3.66 µM [falling, partial curve]"
COC(=O)c1sccc1N/N=C/c1cccc(OC)c1O,"2.31 µM [rising, partial curve, poor fit]",11.8%,–
CC(C)CNC(=O)c1ccccc1-c1ccccc1C(=O)O,"6.51 µM [falling, single point]",-22.6%,–
CC1C/C(=N/O)C(C)CN1 (configuration not stated),–,-0.809%,–
O=C(COc1ccc([N+](=O)[O-])cc1)Nc1nnc(-c2cccnc2)s1,"18.4 µM [falling, single point]",-28.3%,–
CCCCn1c(N)c(N(CC)C(=O)c2cccc(OC)c2)c(=O)[nH]c1=O,"25.9 µM [falling, single point]",16.9%,–
COc1ccc(OC)c(NC(=O)CN(c2ccc(OC)c(Cl)c2)S(C)(=O)=O)c1,–,-31.2%,"0.13 µM [falling, full curve]"
O=C(NC1CCCCC1)N1CCN(c2ncccn2)CC1,"1.64 µM [falling, partial curve]",117%,–
O=C(O)c1ccc(CNS(=O)(=O)c2ccc3ccccc3c2)cc1,"0.58 µM [falling, single point]",20.7%,–
Cc1cccc(C)c1NS(=O)(=O)c1ccc(-c2ccc(=O)[nH]n2)o1,"14.6 µM [falling, partial curve]",–,–
CN(Cc1ccsc1)C(=O)CCc1nnc(CCCc2ccccc2)o1,"23.1 µM [falling, single point]",-10.4%,–

SMILES,AC50 [1],cell number change,AC50 [2]
Cn1c(=O)c2c(SC3CCCC3)nc(C3CC3)nc2n(C)c1=O,–,-7.92%,–
Cc1ccc(CNC(=O)NC23CC4CC(CC(C4)C2)C3)cc1,"0.164 µM [falling, full curve, poor fit]",-1.49%,"0.164 µM [falling, full curve, poor fit]"
Cc1cc(C(=O)C(=O)N(C)C)c(C)n1-c1ccc(Cl)c(Cl)c1,–,-20.6%,"0.651 µM [falling, full curve, poor fit]"
Cc1ccc(NC(=O)CCn2c(=O)[nH]c3ccsc3c2=O)cc1,"29.1 µM [falling, single point]",–,–
COC(=O)c1ccc(NCC(=O)N2CCCCCC2)cc1,–,60.9%,"29.1 µM [rising, single point]"
COC(=O)c1ccc(NC(=O)C2CCN(C(=O)Nc3ccccc3)CC2)cc1,"2.31 µM [falling, partial curve, poor fit]",-9.27%,–
Cc1ccccc1Cn1ccc(NC(=O)c2cnn3c(C(F)(F)F)cc(-c4ccco4)nc23)n1,–,68%,"18.4 µM [rising, single point]"
Cc1ccc(S(=O)(=O)Nc2cc(C(=O)O)ccc2N2CCCCC2)cc1,"6.51 µM [rising, single point]",–,–
O=C(NCc1ccco1)C1CCCN1S(=O)(=O)c1ccccc1C(F)(F)F (configuration not stated),"0.58 µM [falling, full curve]",-18.7%,–
CC1CCCC(C)N1S(=O)(=O)c1ccc(NC(=O)CCn2cnc3ccccc3c2=O)cc1 (configuration not stated),–,-2.8%,"1.46 µM [rising, partial curve, poor fit]"
Cc1cc(C(=O)COC(=O)Cc2n[nH]c(=O)c3ccccc23)c(C)n1-c1ccc2c(c1)OCCO2,"18.4 µM [falling, single point]",-22.4%,–
CCOC(=O)CCC(=O)Nc1cc(S(=O)(=O)N2CCOCC2)ccc1N1CCCCC1,"0.517 µM [rising, full curve]",-11.5%,–
O=C(COC(=O)Cn1cnc2ccccc2c1=O)Nc1ccc(Cl)c(C(F)(F)F)c1,"3.66 µM [rising, full curve]",-11%,–
CCOc1ccc(Br)cc1S(=O)(=O)Nc1ccc(C(=O)OCC(=O)N(C)c2ccccc2)cc1,–,46.4%,"14.6 µM [rising, partial curve, poor fit]"
Cc1cccc(C(=O)NCCNC(=O)c2cccnc2)c1,–,-28.9%,"0.0517 µM [falling, full curve, poor fit]"
CCOc1ccc(N2CC(C(=O)NCc3ccc4c(c3)OCO4)CC2=O)cc1 (configuration not stated),"6.51 µM [falling, partial curve, poor fit]",6.94%,–
CCn1cc(/C=C(\NC(=O)c2ccccc2Cl)C(=O)N2CCN(C)CC2)c2ccccc21,"29.1 µM [rising, single point]",31.6%,"6.51 µM [rising, partial curve, poor fit]"
Cc1c(S(=O)(=O)N2CCN(C(=O)c3ccco3)CC2)c(=O)n(C)c(=O)n1C,"29.1 µM [falling, partial curve]",-92.9%,"29.1 µM [falling, single point]"
O=C(OCc1cccc([N+](=O)[O-])c1)c1cnccn1,–,22.1%,–

SMILES,AC50 [1],cell number change,AC50 [2]
NC(=O)C1(c2ccccc2)CCOCC1,"1.3 µM [falling, full curve, poor fit]",-17.9%,–
COC(=O)CSc1nccc(-c2cccs2)n1,–,-24.4%,"0.058 µM [falling, full curve, poor fit]"
Cc1ccc(C)c(Oc2coc3cc(OCC(=O)Nc4ccccc4C(C)C)ccc3c2=O)c1,–,-9.28%,–
Cc1ccccc1Cn1nc(C)c(NC(=O)c2cc(CC(C)C)on2)c1C,"1.3 µM [rising, full curve, poor fit]",5.68%,–
Cc1ccc(C2C(C#N)=C3N=C(N)c4ccccc4N3C3=C2C(=O)CCC3)cc1 (configuration not stated),"3.26 µM [rising, single point]",14.7%,"0.517 µM [rising, full curve, poor fit]"
O=C(CSc1nnc2c(n1)[nH]c1ccc(F)cc12)NCc1ccc(F)cc1,–,87.8%,"23.1 µM [rising, partial curve]"
COCCn1c(-c2ccc(NC(C)=O)cc2)nc2c1c(=O)[nH]c(=O)n2CC(C)C,"6.51 µM [falling, single point]",4.17%,–
CCN1CCN(c2ccc(S(=O)(=O)N3CCCCC3)cc2NC(=O)/C=C/c2cccc(OC)c2OC)CC1,"11.6 µM [falling, single point]",-12.4%,–
COc1cc(C2C(=O)c3ccccc3C2=O)ccc1O,–,-33.1%,–
CCCCCCn1c(N)c(C#N)c2ccc([N+](=O)[O-])cc2c1=O,"1.46 µM [rising, partial curve]",11%,"1.16 µM [rising, full curve, poor fit]"
CCc1cc(/C(Cc2ccccn2)=N\O)c(O)cc1O,"16.4 µM [falling, single point]",-12.2%,–
Cn1c(CSCc2ccc(F)cc2)nnc1SCC(=O)Nc1nccs1,"10.3 µM [rising, single point]",-24.3%,–
CCCN(CC(=O)Nc1ccc(Cl)cc1Cl)C(=O)/C=C/c1ccco1,"9.2 µM [falling, single point]",-16.7%,–
Cc1ccc2nc(-c3ccc(NC(=S)NC4CC(C)(C)NC(C)(C)C4)cc3)sc2c1,"20.6 µM [falling, single point]",-48.5%,"1.3 µM [falling, full curve]"
COc1ccc(N=C2C(=Nc3ccc(OC)cc3)N(c3ccc(OC)cc3)C(=S)N2c2ccccc2)cc1,–,-38%,"3.66 µM [falling, full curve]"
CC1(C(=O)O)CCC(C(=O)Nc2ccc(S(N)(=O)=O)cc2)C1(C)C (configuration not stated),"0.326 µM [rising, partial curve, poor fit]",11.4%,–
Cc1ccc(C(=O)NCCSCc2ccc(Cl)cc2Cl)cc1[N+](=O)[O-],"5.17 µM [rising, partial curve, poor fit]",33%,"32.6 µM [rising, single point]"
CCc1cc(-c2[nH]ncc2-c2ccc3c(c2)OCO3)c(O)cc1O,"25.9 µM [falling, partial curve]",-55.6%,"23.1 µM [falling, partial curve]"
O=C(Nc1ccnn1C1CCN(C(=O)CCc2ccc(F)cc2)CC1)C1CCOC1 (configuration not stated),"3.16 µM [falling, single point]",-9.42%,–

# A second format for some results above.
SMILES	AC50 [1]	cell number change	AC50 [2]
O=C(COC(=O)Cn1cnc2ccccc2c1=O)Nc1ccc(Cl)c(C(F)(F)F)c1	3.66 µM [rising, full curve]	-11%	–
CCOc1ccc(Br)cc1S(=O)(=O)Nc1ccc(C(=O)OCC(=O)N(C)c2ccccc2)cc1	–	46.4%	14.6 µM [rising, partial curve, poor fit]
Cc1cccc(C(=O)NCCNC(=O)c2cccnc2)c1	–	-28.9%	0.0517 µM [falling, full curve, poor fit]
CCOc1ccc(N2CC(C(=O)NCc3ccc4c(c3)OCO4)CC2=O)cc1 (configuration not stated)	6.51 µM [falling, partial curve, poor fit]	6.94%	–
